Values from PubChem BioAssay AID1508588 (Peter MacCallum Cancer Centre, 2020).
This is one part, drawn at random, of about 18,000 reagents tested. Over the whole deposit, 790 (4.4%) are marked active. 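Calls rest on a combination of fold-change classes in drug and vehicle arms, not all shown here.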 A number with no mark means an inactive call.

Assay: 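Genome-wide search for knock-downs that heighten vemurafenib action in melanoma cells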 (primary screen)
Cell system: human WM266.4 melanoma cells (BRAF V600 mutant)
Reagent: siRNA pool against human genes, 40 nM
Duration: 96 h from transfection to read-out
Treatment: vemurafenib 300 nM (about IC25), added 48 h after transfection, for 48 h; comparison arm got DMSO vehicle only
Measurement: 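Cell gain (DAPI nuclei at end minus before drug, mean of two replicates) and medium lactate by absorbance per cell, both as ratio to non-targeting siRNA, also grouped into fold-change classes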
Scale: cell gain with vemurafenib: higher = more cell gain than with non-targeting siRNA; lactate per cell with vemurafenib: higher = more lactate made per cell
Hit rule: 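Enhancement is called by pairing each knock-down's vehicle-arm and drug-arm fold-change classes for viability or glycolysis; which class combinations qualify is not given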
Meaning of the calls: active = enhances vemurafenib effect; inactive = no enhancement seen

gene | cell gain with vemurafenib | lactate per cell with vemurafenib
ZNF45 | 0.56 | 1.07
RSPO3 | 0.12 | 0.56
NCAPH2 | 0.24 | 1.9
CPA1 | 0.45 (active) | 0.44
RPLP2 | 0.05 | 1.02
PLK4 | 0.48 | 1.75
UBQLN1 | 0.78 | 1.27
ZNF284 | 0.73 | 1.48
TRPV4 | 0.43 | 0.98
ENTREP3 | 0.63 | 1.17
C3orf18 | 0.39 | 1.54
SLC9A6 | 0.92 | 0.56
PTPRN2 | 0.58 | 0.84
ATP6V1A | 0.63 | 0.91
UBTF | 0.8 | 1.2
ELK1 | 0.1 | 2.27
ERP44 | 0.59 | 0.67
PCDH8 | 0.61 | 0.75
DNAL4 | 0.65 | 0.97
DHRS1 | 0.18 | 3.01
XKRYP7 | 0.57 | 1.12
FXYD7 | 0.52 | 0.57
IL36RN | 0.47 | 0.75
APH1A | 0.8 | 0.68
AP2A2 | 0.11 | 0.24
HMGXB4 | 0.94 | 0.32
NDST2 | 0.82 | 1.02
RCOR2 | 1.25 | 0.66
SERPINB1 | 0.01 | 2.04
PHTF1 | 0.75 | 0.83
HEXA | 0.67 | 0.66
PTCH2 | 0.43 | 0.55
PRRG2 | 0.66 | 0.6
GPHN | 0.89 | 0.62

Reformatted: 2 of the entries above
{"gene":"ENTREP3","cell gain with vemurafenib":0.63,"lactate per cell with vemurafenib":1.17}
{"gene":"C3orf18","cell gain with vemurafenib":0.39,"lactate per cell with vemurafenib":1.54}
